Data reported in doi:10.1101/2021.07.15.452438 (bioRxiv, 2021).
No constants are given. Whether binding was seen depends on the method and setting. Binding seen in cells or lysates may run through a third protein. A yes stands for co-enrichment or nearness to the bait. Other partners may have been found.

Protein sequences, listed by entry. Tags and fused reporters are not part of them.
UniProt O14646: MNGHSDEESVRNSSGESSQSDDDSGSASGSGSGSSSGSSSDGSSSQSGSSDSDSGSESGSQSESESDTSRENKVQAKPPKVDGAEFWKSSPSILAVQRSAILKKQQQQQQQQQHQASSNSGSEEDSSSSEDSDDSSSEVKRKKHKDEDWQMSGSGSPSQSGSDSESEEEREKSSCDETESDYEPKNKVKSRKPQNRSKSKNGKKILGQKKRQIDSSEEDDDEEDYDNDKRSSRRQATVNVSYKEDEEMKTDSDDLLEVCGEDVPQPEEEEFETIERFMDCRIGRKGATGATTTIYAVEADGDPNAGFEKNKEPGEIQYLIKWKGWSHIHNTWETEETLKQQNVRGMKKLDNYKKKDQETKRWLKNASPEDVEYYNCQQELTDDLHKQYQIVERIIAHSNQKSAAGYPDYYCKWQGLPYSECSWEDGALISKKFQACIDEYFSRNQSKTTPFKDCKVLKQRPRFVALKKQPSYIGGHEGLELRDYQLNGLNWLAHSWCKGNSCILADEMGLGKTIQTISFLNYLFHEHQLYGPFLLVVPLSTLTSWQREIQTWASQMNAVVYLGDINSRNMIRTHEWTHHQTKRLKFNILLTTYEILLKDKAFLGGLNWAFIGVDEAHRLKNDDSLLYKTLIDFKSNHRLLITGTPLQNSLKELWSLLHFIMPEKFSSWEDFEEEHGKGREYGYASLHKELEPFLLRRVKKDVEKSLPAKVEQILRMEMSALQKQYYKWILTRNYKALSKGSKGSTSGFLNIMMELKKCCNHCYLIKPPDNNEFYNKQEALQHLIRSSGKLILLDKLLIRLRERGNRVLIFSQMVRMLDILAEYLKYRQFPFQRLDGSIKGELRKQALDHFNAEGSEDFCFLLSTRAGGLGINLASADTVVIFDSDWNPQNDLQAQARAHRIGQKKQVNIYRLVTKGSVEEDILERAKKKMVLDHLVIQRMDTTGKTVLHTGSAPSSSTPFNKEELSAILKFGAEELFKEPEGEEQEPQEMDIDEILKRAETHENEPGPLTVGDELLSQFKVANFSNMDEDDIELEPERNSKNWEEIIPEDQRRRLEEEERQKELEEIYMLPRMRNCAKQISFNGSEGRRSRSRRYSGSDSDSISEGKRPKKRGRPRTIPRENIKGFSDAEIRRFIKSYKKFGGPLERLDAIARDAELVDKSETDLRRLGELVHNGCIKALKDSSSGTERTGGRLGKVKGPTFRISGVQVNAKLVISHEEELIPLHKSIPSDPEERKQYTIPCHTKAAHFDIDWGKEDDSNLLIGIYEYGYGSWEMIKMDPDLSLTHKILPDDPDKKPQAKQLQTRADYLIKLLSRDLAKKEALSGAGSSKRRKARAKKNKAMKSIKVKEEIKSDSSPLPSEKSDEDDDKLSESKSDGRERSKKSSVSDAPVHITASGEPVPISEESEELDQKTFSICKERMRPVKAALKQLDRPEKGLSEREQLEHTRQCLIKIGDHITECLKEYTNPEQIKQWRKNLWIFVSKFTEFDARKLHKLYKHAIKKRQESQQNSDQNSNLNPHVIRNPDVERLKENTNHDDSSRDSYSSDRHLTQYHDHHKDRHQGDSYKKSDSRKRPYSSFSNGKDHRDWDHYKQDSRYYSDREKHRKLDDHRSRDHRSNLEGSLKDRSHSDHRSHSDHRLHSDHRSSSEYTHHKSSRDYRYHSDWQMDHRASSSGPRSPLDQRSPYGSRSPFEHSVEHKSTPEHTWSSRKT

Molecular target: TurboID-BRD4-ET (UniProt O60885 600-678)
Assay: proximity labelling

CHD1 (from UniProt O14646 1-1710)
binding: binds
